Results taken from article PMC9635645.
No constants are given. Whether binding was seen depends on the method and setting. Where a sequence is shown, tags or fusion partners need not be part of it.

Biological target: GAL4 DBD-BEAF-32B (Drosophila)
Test: two-hybrid; GAL4 AD fusions (pOAD) against GAL4 DBD fusions (pOBD2) in yeast; 50 to 100 colonies with both plasmids scored for growth on medium lacking adenine and histidine, with X-α-Gal

B1: SSRP, subunit of FACT, yeast two-hybrid fusion (protein, UniProt Q05344 1-723)
chain: MTDSLEYNDINAEVRGVLCSGRLKMTEQNIIFKNTKTGKVEQISAEDIDLINSQKFVGTWGLRVFTKGGVLHRFTGFRDSEHEKLGKFIKAAYSQEMVEKEMCVKGWNWGTARFMGSVLSFDKESKTIFEVPLSHVSQCVTGKNEVTLEFHQNDDAPVGLLEMRFHIPAVESAEEDPVDKFHQNVMSKASVISASGESIAIFREIQILTPRGRYDIKIFSTFFQLHGKTFDYKIPMDSVLRLFMLPHKDSRQMFFVLSLDPPIKQGQTRYHYLVLLFAPDEETTIELPFSEAELRDKYEGKLEKEISGPVYEVMGKVMKVLIGRKITGPGNFIGHSGTAAVGCSFKAAAGYLYPLERGFIYIHKPPLHIRFEEISSVNFARSGGSTRSFDFEVTLKNGTVHIFSSIEKEEYAKLFDYITQKKLHVSNMGKDKSGYKDVDFGDSDNENEPDAYLARLKAEAREKEEDDDDGDSDEESTDEDFKPNENESDVAEEYDSNVESDSDDDSDASGGGGDSDGAKKKKEKKSEKKEKKEKKHKEKERTKKPSKKKKDSGKPKRATTAFMLWLNDTRESIKRENPGIKVTEIAKKGGEMWKELKDKSKWEDAAAKDKQRYHDEMRNYKPEAGGDSDNEKGGKSSKKRKTEPSPSKKANTSGSGFKSKEYISDDDSTSSDDEKDNEPAKKKSKPPSDGDAKKKKAKSESEPEESEEDSNASDEDEEDEASD
  binding: no binding
